In the assay the target is Fat3 (atypical cadherin), endogenous (mouse (endogenous in E11.5 spinal cord)) (UniProt Q8BNA6). Nature of the assay: co-IP; E11.5 mouse spinal cord extract (20 spinal cords pooled for each immunoprecipitation); IP buffer (20 mM Tris-HCl pH 8.0, 0.5% NP-40, 1 mM EDTA, 150 mM NaCl, 10% glycerol); precipitated with rabbit anti-Fat3, blotted with anti-Lats1.

Chains of the proteins cited; added tags and fusions are not shown. Residues count along the entry.
UniProt Q8BNA6, residues 32-4555: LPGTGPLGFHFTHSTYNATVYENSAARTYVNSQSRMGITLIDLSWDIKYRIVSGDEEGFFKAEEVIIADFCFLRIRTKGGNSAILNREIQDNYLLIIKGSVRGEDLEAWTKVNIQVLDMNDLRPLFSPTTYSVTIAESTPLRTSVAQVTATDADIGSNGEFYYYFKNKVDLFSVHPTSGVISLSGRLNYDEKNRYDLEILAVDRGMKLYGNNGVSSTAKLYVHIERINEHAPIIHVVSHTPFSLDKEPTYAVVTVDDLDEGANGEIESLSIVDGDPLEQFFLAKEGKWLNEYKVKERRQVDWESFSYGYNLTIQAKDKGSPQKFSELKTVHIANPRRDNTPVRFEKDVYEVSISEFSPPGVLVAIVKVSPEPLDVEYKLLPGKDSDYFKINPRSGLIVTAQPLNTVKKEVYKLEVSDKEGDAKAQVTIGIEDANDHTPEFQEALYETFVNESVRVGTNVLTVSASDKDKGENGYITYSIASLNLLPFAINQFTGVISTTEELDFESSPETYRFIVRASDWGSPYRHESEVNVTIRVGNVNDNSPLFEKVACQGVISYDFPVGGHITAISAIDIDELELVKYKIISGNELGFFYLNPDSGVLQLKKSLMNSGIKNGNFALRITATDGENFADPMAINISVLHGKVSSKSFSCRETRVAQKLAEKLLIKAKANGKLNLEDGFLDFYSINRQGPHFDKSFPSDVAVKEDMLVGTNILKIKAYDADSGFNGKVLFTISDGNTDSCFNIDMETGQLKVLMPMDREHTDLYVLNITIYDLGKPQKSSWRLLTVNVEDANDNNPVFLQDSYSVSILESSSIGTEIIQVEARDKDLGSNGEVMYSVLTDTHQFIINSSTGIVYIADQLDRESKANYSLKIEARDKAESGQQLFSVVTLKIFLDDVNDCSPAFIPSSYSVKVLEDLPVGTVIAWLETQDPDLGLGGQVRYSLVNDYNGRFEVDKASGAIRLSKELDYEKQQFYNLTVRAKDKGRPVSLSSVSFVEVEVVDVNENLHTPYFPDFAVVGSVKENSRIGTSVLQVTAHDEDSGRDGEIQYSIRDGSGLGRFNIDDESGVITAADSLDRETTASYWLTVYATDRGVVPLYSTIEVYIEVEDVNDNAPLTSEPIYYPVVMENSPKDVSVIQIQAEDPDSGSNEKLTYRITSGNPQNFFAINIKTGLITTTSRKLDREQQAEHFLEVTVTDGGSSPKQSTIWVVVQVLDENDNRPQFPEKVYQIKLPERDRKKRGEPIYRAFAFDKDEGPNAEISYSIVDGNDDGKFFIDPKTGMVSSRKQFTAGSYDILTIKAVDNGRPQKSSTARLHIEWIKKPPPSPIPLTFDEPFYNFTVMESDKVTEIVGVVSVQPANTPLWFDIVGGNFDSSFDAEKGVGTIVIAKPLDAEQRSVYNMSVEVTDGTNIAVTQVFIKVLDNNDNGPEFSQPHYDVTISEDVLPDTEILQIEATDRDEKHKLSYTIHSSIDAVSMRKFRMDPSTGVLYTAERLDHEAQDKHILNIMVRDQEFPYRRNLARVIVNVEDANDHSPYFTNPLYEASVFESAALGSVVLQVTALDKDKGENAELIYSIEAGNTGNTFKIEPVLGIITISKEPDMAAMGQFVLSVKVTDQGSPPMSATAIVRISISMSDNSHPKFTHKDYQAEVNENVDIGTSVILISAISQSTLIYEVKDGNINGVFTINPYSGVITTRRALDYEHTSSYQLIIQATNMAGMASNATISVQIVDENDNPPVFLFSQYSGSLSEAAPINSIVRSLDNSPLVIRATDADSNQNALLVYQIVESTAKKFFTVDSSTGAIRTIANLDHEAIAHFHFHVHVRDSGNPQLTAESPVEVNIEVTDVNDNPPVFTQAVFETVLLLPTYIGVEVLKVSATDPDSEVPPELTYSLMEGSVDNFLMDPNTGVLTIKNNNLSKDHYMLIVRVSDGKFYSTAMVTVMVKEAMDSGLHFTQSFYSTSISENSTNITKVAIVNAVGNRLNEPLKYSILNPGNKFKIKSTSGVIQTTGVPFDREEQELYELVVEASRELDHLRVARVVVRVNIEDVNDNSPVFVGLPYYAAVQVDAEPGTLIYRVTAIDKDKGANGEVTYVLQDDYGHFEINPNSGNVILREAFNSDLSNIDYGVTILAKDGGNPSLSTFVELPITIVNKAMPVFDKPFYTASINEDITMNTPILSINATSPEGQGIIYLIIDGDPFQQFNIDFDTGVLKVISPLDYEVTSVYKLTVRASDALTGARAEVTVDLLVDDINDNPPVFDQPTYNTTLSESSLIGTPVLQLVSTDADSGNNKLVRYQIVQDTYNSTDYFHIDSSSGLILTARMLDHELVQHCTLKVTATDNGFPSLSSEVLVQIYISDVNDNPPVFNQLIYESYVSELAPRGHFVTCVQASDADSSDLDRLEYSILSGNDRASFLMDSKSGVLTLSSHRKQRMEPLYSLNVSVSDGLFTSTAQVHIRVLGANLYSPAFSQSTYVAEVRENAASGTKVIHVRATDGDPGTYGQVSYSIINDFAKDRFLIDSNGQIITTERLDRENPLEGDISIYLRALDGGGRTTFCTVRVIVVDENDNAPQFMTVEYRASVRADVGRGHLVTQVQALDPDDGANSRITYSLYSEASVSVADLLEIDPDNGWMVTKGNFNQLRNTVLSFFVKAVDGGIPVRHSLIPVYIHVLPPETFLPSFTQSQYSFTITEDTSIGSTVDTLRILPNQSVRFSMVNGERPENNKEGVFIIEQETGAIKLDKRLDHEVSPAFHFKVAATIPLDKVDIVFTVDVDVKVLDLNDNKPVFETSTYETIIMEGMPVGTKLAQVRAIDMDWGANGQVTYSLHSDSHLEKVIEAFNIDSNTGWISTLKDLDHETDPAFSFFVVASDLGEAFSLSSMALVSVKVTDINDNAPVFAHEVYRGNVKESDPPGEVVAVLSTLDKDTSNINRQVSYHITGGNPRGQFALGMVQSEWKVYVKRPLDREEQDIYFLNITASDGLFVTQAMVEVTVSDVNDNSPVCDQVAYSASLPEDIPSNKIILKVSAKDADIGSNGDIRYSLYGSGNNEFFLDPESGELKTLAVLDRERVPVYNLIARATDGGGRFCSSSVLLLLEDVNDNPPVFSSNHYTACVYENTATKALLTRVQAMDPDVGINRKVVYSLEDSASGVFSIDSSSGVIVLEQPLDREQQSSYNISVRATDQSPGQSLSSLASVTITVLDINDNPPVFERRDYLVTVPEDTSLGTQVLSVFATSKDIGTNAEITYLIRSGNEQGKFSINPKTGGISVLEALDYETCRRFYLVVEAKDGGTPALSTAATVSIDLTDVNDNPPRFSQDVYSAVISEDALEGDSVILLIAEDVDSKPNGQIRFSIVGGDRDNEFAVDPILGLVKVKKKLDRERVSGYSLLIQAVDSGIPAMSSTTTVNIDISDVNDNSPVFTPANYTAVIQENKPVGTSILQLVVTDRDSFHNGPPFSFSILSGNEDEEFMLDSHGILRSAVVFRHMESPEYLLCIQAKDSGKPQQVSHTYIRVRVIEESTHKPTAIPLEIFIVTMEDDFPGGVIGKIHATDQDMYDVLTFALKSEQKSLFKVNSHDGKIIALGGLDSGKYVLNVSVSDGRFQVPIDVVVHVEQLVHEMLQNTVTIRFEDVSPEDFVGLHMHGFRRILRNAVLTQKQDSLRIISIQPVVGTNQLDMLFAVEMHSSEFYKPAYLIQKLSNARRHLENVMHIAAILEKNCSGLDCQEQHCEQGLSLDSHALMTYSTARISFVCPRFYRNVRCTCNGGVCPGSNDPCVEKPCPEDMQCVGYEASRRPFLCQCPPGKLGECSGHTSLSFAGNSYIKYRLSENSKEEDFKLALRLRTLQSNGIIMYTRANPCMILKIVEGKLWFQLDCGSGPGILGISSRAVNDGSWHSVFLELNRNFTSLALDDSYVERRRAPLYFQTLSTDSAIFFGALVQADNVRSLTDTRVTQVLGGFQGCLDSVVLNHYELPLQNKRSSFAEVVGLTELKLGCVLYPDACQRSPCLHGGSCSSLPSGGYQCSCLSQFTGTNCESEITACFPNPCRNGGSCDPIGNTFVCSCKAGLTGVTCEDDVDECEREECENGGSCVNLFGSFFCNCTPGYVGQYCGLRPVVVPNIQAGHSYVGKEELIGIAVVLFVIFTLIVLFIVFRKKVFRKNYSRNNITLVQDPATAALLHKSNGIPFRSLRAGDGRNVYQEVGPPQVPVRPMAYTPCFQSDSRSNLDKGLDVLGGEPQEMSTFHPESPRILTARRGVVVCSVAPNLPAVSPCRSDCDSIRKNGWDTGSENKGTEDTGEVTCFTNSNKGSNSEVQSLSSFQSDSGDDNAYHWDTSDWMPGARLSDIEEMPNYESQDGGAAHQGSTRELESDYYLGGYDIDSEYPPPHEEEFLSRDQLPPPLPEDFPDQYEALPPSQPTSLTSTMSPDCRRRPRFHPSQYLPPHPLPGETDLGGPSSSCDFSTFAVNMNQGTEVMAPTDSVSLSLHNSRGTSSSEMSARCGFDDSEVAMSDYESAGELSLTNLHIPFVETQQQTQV

Results are given in words; binding and its absence hold for the method and conditions named. In cells and extracts the contact can be indirect. Some entries that bind do so weakly or less than the wild type.

B1: Lats1, endogenous (enzyme, UniProt Q8BYR2 1-1129)
chain: MKRGEKPEGYRQMRPKTFPASNYPGSSRQMLQEIRESLRNLSKPSDASKAEHNLNKMSTEDPRQVRNPPKFGTHHKALQEIRNSLLPFANETSSSRSPSEVNPQMFQDLQAAGFDEDMVIQALQKTNNRSIEAAVEFISKMSYQDPRREQMSAAAARPINATMKPGNVQHSINRKQSWKGSKESLVPQRHGPSLGENVVYRSESPNSQADVGRPLSGSGIAAFAQAHPSNGQRVNPPPPPQVRSVTPPPPPRGQTPPPRGTTPPPPSWEPSSQTKRYSGNMEYVISRISPVPPGAWQEGYPPPPLTTSPMNPPSQAQRAISSVPVGRQPIIMQSTSKFNFTPGRPGVQNGGGQSDFIVHQNVPTGSVTRQPPPPYPLTPANGQSPSALQTGASAAPPSFANGNVPQSMMVPNRNSHNMELYNINVPGLQTAWPQSSSAPAQSSPSGGHEIPTWQPNIPVRSNSFNNPLGSRASHSANSQPSATTVTAITPAPIQQPVKSMRVLKPELQTALAPTHPSWMPQPVQTVQPTPFSEGTASSVPVIPPVAEAPSYQGPPPPYPKHLLHQNPSVPPYESVSKPCKDEQPSLPKEDDSEKSADSGDSGDKEKKQITTSPITVRKNKKDEERRESRIQSYSPQAFKFFMEQHVENVLKSHQQRLHRKKQLENEMMRVGLSQDAQDQMRKMLCQKESNYIRLKRAKMDKSMFVKIKTLGIGAFGEVCLARKVDTKALYATKTLRKKDVLLRNQVAHVKAERDILAEADNEWVVRLYYSFQDKDNLYFVMDYIPGGDMMSLLIRMGIFPENLARFYIAELTCAVESVHKMGFIHRDIKPDNILIDRDGHIKLTDFGLCTGFRWTHDSKYYQSGDHPRQDSMDFSNEWGDPSNCRCGDRLKPLERRAARQHQRCLAHSLVGTPNYIAPEVLLRTGYTQLCDWWSVGVILFEMLVGQPPFLAQTPLETQMKVINWQTSLHIPPQAKLSPEASDLIIKLCRGPEDRLGKNGADEIKAHPFFKTIDFSSDLRQQSASYIPKITHPTDTSNFDPVDPDKLWSDGSEEENISDTLNGWYKNGKHPEHAFYEFTFRRFFDDNGYPYNYPKPIEYEYIHSQGSEQQSDEDDQHTSSDGNNRDLVYV
Take B1: the binding entry is “binds”.

The values above are taken from publication PMC9427758.
